From the supplement of paper PMC10663445
Where “and” joins values, the source holds several entries; their conditions need not be identical. Equal entries are not always repeated. Structures can show the parent of a compound that is named as a salt. Some of the results follow. Repeats are few or missing, and single values can be far off.

These molecules were tested on hsa-miR-132-3p (assay: miR-132-3p level in NGN2-iNs after compound treatment (TMM-normalised, ComBat batch-corrected) (batch-corrected normalised expression (arbitrary units)); higher = higher miR-132-3p expression). Details: 10 µM; 24 h; human iPSC-derived NGN2 neurons (BR43).

Row | SMILES | miR-132-3p level in NGN2-iNs
1 | O=S(=O)(c1cccc2cnccc12)N1CCCNCC1 [Fasudil (HA-1077) HCl] | 0.202
2 | COc1cc2nc(N3CCCN(C)CC3)nc(NC3CCN(Cc4ccccc4)CC3)c2cc1OC | -0.189
3 | CC(NCCc1ccc(O)cc1)C(O)c1ccc(O)cc1 (stereo not drawn) [Ritodrine HCl] | -1.16
4 | CCCc1nn(C)c2c(=O)[nH]c(-c3cc(S(=O)(=O)N4CCN(C)CC4)ccc3OCC)nc12 [Sildenafil Citrate] | 0.56
5 | CN(C[C@@H]1COCCO1)S(=O)(=O)Nc1ccc2ccc3ncc(-c4cnn(C)c4)cc3c(=O)c2c1 | -0.868
6 | CCOC(=O)CC(=O)N1CCSC1COc1ccccc1OC (stereo not drawn) [Moguisteine] | -1.21
7 | CC(=O)Oc1ccc(C(c2ccc(OC(C)=O)cc2)c2ccccn2)cc1 [Bisacodyl] | -0.0212
8 | O=C(CSc1nc2c(c(=O)n1-c1ccccc1)SCC2)Nc1ccc(-c2ccccc2)cn1 | -0.433
9 | Nc1ccc(C(=O)O)c(O)c1 [Sodium 4-Aminosalicylate] | 0.000548
10 | O=C1O[C@H]([C@@H](O)CO)C(O)=C1O [Vitamin C] | 1.03
11 | Cc1cccc(C)c1OCC(=O)N[C@@H](Cc1ccccc1)[C@@H](O)C[C@H](Cc1ccccc1)NC(=O)[C@H](C(C)C)N1CCCNC1=O [Lopinavir] | -2.85
12 | O=C(O)c1ccccc1Nc1cccc(C(F)(F)F)c1 [Flufenamic acid] | 0.0147
13 | O=C(O)Cn1nnc(-c2cc(N3CCC(Oc4cc(F)ccc4Br)CC3)no2)n1 | 0.452
14 | CCC(=O)O[C@]1(C(=O)SCF)[C@H](C)C[C@H]2[C@@H]3C[C@H](F)C4=CC(=O)C=C[C@]4(C)[C@@]3(F)[C@@H](O)C[C@@]21C [Fluticasone propionate] | -0.379
15 | CC(C)[C@H](O)C(=O)N[C@@H](C)C(=O)N[C@@H]1C(=O)N(C)CCc2ccccc21 | 0.0343
16 | Cc1[nH]nc2ccc(-c3cncc(OC[C@@H](N)Cc4ccccc4)c3)cc12 | -0.306
17 | CCCCC(=O)N(Cc1ccc(-c2ccccc2-c2nnn[nH]2)cc1)[C@H](C(=O)O)C(C)C [Valsartan] | -0.316
18 | Cc1ccc(Nc2nccc(N(C)c3ccc4c(C)n(C)nc4c3)n2)cc1S(N)(=O)=O [Pazopanib] | -1.08
19 | Nc1cc(C(F)(F)F)c(-c2cc(N3CCOCC3)nc(N3CCOCC3)n2)cn1 [Buparlisib (BKM120, NVP-BKM120)] | -0.232
20 | Cc1c(C(=O)Nc2ccc(N3C[C@@H](C)O[C@@H](C)C3)nc2)cccc1-c1ccc(OC(F)(F)F)cc1 [Sonidegib (Erismodegib, NVP-LDE225)] | -1.08
21 | Cc1ccc(Sc2cncc3sc(C(N)=O)cc23)cc1 | -0.151
22 | COc1cccc(-c2cc(F)ccc2C2Cc3nc(N)nc(C)c3C(=O)N2)n1 (stereo not drawn) | -0.573
23 | O=c1cc(N2CCOCC2)oc2c(-c3ccccc3)cccc12 | -2.85
24 | O=C(Nc1ccccc1)N1CCN(c2nc(-c3ccccc3)ns2)CC1 | -1.38
25 | CCc1ccc(OCc2ccccc2C(=O)Nc2ccc3nc(C)cc(N)c3c2)cc1 | -1.51
26 | CN(C)CCc1c[nH]c2ccc(CS(=O)(=O)N3CCCC3)cc12 [Almotriptan Malate] | 1.87

Row | SMILES | miR-132-3p level in NGN2-iNs
27 | Cn1nc(C(C)(C)C)cc1C(=O)N[C@@H](Cc1cccc(Cl)c1)C(=O)NCC#N [Cathepsin Inhibitor 1] | -1.44
28 | CN(c1ncccc1CNc1nc(Nc2ccc3c(c2)CC(=O)N3)ncc1C(F)(F)F)S(C)(=O)=O | -0.784 and -0.832 and -1.44
29 | COC(=O)/C=C/C(=O)OC [Dimethyl Fumarate] | 1.04
30 | O=C(NC(Cc1cc(=O)[nH]c2ccccc12)C(=O)O)c1ccc(Cl)cc1 (stereo not drawn) [Rebamipide] | 0.656
31 | CC1(C)C=C(CN2C/C(=C\c3ccc(F)cc3)C(=O)/C(=C/c3ccc(F)cc3)C2)C(C)(C)N1O | -0.22
32 | NNC(=O)c1ccncc1 [Isoniazid] | -0.437
33 | O=C(O)CCCN1CCC(O[C@@H](c2ccc(Cl)cc2)c2ccccn2)CC1 [Bepotastine Besilate] | -0.934
34 | C[C@H]1C[C@H]2[C@@H]3CCC4=CC(=O)C=C[C@]4(C)[C@H]3C(=O)C[C@]2(C)[C@@]1(O)C(=O)CO [Meprednisone] | -0.0182
35 | Cc1ccc(S(=O)(=O)OCC(=O)Nc2ccc(C(=O)O)c(O)c2)cc1 | -0.264
36 | O=c1[nH]c(=O)n([C@H]2C[C@H](O)[C@@H](CO)O2)cc1I [Idoxuridine] | -0.161
37 | CN1CCN(c2ccc3nc(-c4c(N)c5c(F)cccc5[nH]c4=O)[nH]c3c2)CC1 [Dovitinib (TKI-258) Dilactic Acid] | 0.666
38 | CN1CCN(c2ccc3nc(-c4c(N)c5c(F)cccc5[nH]c4=O)[nH]c3c2)CC1 [Dovitinib (TKI-258)] | 0.754
39 | C=CCNC1=C2C[C@@H](C)C[C@H](OC)[C@H](O)[C@@H](C)/C=C(\C)[C@H](OC(N)=O)[C@@H](OC)/C=C\C=C(/C)C(=O)NC(=CC1=O)C2=O [Tanespimycin (17-AAG)] | 0.0559
40 | Cc1cccc(N(C)C(=S)Oc2ccc3ccccc3c2)c1 [Tolnaftate] | 0.608
41 | O=C(O)c1cccnc1 [Nicotinic Acid] | -1.02
42 | COc1ccc(-c2ccc3cc(C(=O)O)ccc3c2)cc1C12CC3CC(CC(C3)C1)C2 [Adapalene] | -0.298
43 | COc1ccc(-c2cc(=O)c3c(OC)c(OC)c(OC)c(OC)c3o2)cc1 [Tangeretin] | 1.07
44 | CN1C(C(=O)Nc2ccccn2)=C(O)c2sc(Cl)cc2S1(=O)=O [Lornoxicam] | -1.05
45 | CC12CC3CC(C)(C1)CC(N)(C3)C2 [Memantine HCl] | -0.00424
46 | Cc1ccc(CNc2ncnc3ccc(-c4ccc(CO)o4)cc23)o1 | 1.68
47 | O=C(Nc1cccnc1)N1CCC(Cc2cccc(Oc3ccc(C(F)(F)F)cn3)c2)CC1 | 0.503
48 | CC(C)c1nc(CN(C)C(=O)N[C@@H](CCN2CCOCC2)C(=O)N[C@H](CC[C@H](Cc2ccccc2)NC(=O)OCc2cncs2)Cc2ccccc2)cs1 [Cobicistat (GS-9350)] | -1.75
49 | Cc1cccc(-c2nn3c(c2-c2ccnc4ccc(C(N)=O)cc24)CCC3)n1 | -0.308
50 | Cc1ccc(C(=O)Nc2cccc(C(F)(F)F)c2)cc1Nc1nc(-c2cccnc2)nc2c1cnn2C | -2.22
51 | Cc1noc(-c2ccc(CSCCC(=O)O)cc2)c1NC(=O)OC(C)c1ccccc1Cl (stereo not drawn) | 0.103
52 | COc1ccc(-c2cc(=O)c3c(OC)c(OC)c(OC)c(OC)c3o2)cc1OC | 1

Some of the entries so far, as labelled records:
CCCCC(=O)N(Cc1ccc(-c2ccccc2-c2nnn[nH]2)cc1)[C@H](C(=O)O)C(C)C [Valsartan]
  miR-132-3p level in NGN2-iNs: -0.316
Cc1c(C(=O)Nc2ccc(N3C[C@@H](C)O[C@@H](C)C3)nc2)cccc1-c1ccc(OC(F)(F)F)cc1 [Sonidegib (Erismodegib, NVP-LDE225)]
  miR-132-3p level in NGN2-iNs: -1.08
CN(C)CCc1c[nH]c2ccc(CS(=O)(=O)N3CCCC3)cc12 [Almotriptan Malate]
  miR-132-3p level in NGN2-iNs: 1.87
CC12CC3CC(C)(C1)CC(N)(C3)C2 [Memantine HCl]
  miR-132-3p level in NGN2-iNs: -0.00424

Next entries follow.

Row | SMILES | miR-132-3p level in NGN2-iNs
53 | O=c1cc[nH]c(=O)[nH]1 [Uracil] | 0.0711
54 | CCC[C@@H]1C[C@@H](C(=O)N[C@@H]([C@H]2O[C@H](SC)[C@H](O)[C@@H](O)[C@H]2O)[C@@H](C)O)N(C)C1 [Lincomycin HCl] | -0.355
55 | N#Cc1c(Oc2ccc(F)c(NC(=O)Cc3cccc(C(F)(F)F)c3)c2)ccc2nc(NC(=O)C3CC3)sc12 | -0.319
56 | Nc1nc(N)c2nc(-c3ccccc3)c(N)nc2n1 [Triamterene] | 0.577
57 | C=C1CC[C@H](O)C/C1=C/C=C1\CCC[C@]2(C)[C@@H]([C@H](C)/C=C/[C@H](C)C(C)C)CC[C@@H]12 [Vitamin D2] | -1.06
58 | C=CC[N+]1([C@H]2C[C@H]3[C@@H]4CC[C@H]5C[C@H](O)[C@@H](N6CCOCC6)C[C@]5(C)[C@H]4CC[C@]3(C)[C@H]2OC(C)=O)CCCC1 [Rocuronium Bromide] | -0.0964
59 | Cc1ccc(C(=O)Cn2c3c(sc2=N)CCCC3)cc1 [Pifithrin-α (PFTα) HBr] | 1.28
60 | CC(C)(C)NC(=O)[C@H]1CC[C@H]2[C@@H]3CC[C@H]4NC(=O)C=C[C@]4(C)[C@H]3CC[C@]12C [Finasteride] | -0.175
61 | O=[N+]([O-])c1cn2c(n1)OC[C@@H](OCc1ccc(OC(F)(F)F)cc1)C2 | 0.14
62 | Cn1nnc2c(C(N)=O)ncn2c1=O [Temozolomide] | 0.583
63 | CCCCOc1ccc(C(=O)CCN2CCCCC2)cc1 [Dyclonine HCl] | -0.448
64 | COc1ccc(CCC(=O)Nc2nc3ccc(Cl)cc3s2)cc1OC | -0.366
65 | Cc1cc2c(C(=O)NCC(C)c3ccccc3)c(O)c(O)cc2c(O)c1-c1c(C)cc2c(C(=O)NCC(C)c3ccccc3)c(O)c(O)cc2c1O (stereo not drawn) [Sabutoclax] | -2.59
66 | O=C(c1ccccc1)c1ccc2nc(NC(=O)c3csc(C4CCN(c5ncnc6ccsc56)CC4)n3)[nH]c2c1 | -0.407
67 | Cn1c(N2CCCCS2(=O)=O)nc(C(=O)NCc2ccc(F)cc2)c(O)c1=O | -2.85
68 | Cn1cnc(=N)c2[nH]cnc21 [3-Methyladenine (3-MA)] | -0.263
69 | C[N+](C)(C)CC(O)CC(=O)[O-] (racemic) [DL-Carnitine HCl] | 0.0865
70 | CC(C)=CCCC(C)(OC1OC(COC2OCC(O)C(O)C2O)C(O)C(O)C1O)C1CCC2(C)C1C(O)CC1C3(C)CCC(OC4OC(CO)C(O)C(O)C4O)C(C)(C)C3CCC12C (stereo not drawn) [Gynostemma Extract] | -0.704
71 | NCCc1ccc(O)c(O)c1 [Dopamine HCl] | -0.568
72 | C[C@H](CS)C(=O)N1CCC[C@H]1C(=O)O [Captopril] | -0.477
73 | Cn1cnc2c(F)c(Nc3ccc(Br)cc3Cl)c(C(=O)NOCCO)cc21 [Selumetinib (AZD6244)] | 0.16
74 | Nc1nc(N)c2nc(-c3cccc(O)c3)c(-c3cccc(O)c3)nc2n1 | -0.191
75 | COc1ccc(CNc2nc(N3CCC[C@H]3CO)ncc2C(=O)NCc2ncccn2)cc1Cl [Avanafil] | 0.13
76 | CN1CCN(C(=O)c2cc3cc(Cl)ccc3[nH]2)CC1 | 1.06
77 | OC[C@@H](O)CN1CCN(c2ccccc2)CC1 [Levodropropizine] | -0.217
78 | Cc1c(Nc2ncccc2C(=O)O)cccc1C(F)(F)F [Flunixin Meglumin] | 0.692
